Laboratory results as given in PMC11500565.
Results are given in words; binding and its absence hold for the method and conditions named. In cells and extracts the contact can be indirect. Some binding calls cover weakened binding; strength is not graded here. Tags and fused reporters may be left off the sequences shown.

Columns and labels:
Assay in all cases: co-IP; proteins co-expressed transiently in Nicotiana benthamiana leaves by agroinfiltration; protein extracts incubated with anti-HA antibody beads at 4°C for one hour; blots probed with anti-HA and anti-FLAG (anti-DYKDDDDK) antibodies
[1] = molecular target: T1, ABF2-3×HA (Arabidopsis) (UniProt Q9M7Q4)
T1 sequence: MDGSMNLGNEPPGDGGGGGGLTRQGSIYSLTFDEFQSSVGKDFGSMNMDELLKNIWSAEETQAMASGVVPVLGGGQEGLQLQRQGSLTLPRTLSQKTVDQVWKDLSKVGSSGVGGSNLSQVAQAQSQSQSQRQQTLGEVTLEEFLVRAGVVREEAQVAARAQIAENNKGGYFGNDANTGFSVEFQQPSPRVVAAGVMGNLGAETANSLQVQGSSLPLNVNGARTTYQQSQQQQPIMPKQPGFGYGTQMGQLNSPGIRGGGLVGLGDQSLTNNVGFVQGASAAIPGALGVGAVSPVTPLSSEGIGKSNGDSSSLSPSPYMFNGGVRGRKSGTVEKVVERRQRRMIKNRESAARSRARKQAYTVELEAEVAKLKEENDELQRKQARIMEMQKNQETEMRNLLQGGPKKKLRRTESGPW

[2] = molecular target: T2, … DOMAIN 16 (IDD16) (Arabidopsis) (UniProt Q9FRH4)
T2 sequence: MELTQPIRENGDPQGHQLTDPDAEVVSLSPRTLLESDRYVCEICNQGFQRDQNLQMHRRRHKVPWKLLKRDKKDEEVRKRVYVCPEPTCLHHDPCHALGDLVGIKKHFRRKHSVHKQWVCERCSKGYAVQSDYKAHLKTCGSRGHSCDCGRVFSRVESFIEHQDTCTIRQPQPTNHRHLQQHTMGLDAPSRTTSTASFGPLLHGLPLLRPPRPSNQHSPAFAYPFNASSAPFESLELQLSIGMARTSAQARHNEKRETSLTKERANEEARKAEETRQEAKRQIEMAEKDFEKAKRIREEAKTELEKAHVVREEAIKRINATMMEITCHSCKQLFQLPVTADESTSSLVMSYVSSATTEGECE

[3] = molecular target: T3, ABF1-3×HA (Arabidopsis) (UniProt Q9M7Q5)
T3 sequence: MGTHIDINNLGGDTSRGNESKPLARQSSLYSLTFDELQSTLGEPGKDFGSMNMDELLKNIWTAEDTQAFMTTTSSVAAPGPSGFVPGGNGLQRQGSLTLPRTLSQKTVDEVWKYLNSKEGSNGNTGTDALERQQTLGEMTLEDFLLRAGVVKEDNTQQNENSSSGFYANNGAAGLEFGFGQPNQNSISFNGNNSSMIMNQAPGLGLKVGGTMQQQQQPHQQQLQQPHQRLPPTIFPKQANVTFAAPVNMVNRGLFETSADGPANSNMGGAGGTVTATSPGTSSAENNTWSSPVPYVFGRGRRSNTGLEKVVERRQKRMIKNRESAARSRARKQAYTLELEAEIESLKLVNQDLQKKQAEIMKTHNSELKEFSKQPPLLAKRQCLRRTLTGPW

binding [1]: no binding
binding [2]: binds
binding [3]: no binding
B1: SHOOT GRAVITROPISM 5 (SGR5)-3×FLAG (protein, UniProt F4IPE3 1-445)
chain: MRTDQVMLSNKNTNTCCVVSSSSSDPFLSSSENGVTTTNTSTQKRKRRPAGTPDPDAEVVSLSPRTLLESDRYICEICNQGFQRDQNLQMHRRRHKVPWKLLKRDNNIEVKKRVYVCPEPTCLHHNPCHALGDLVGIKKHFRRKHSNHKQWVCERCSKGYAVQSDYKAHLKTCGTRGHSCDCGRVFSRVESFIEHQDNCSARRVHREPPRPPQTAVTVPACSSRTASTVSTPSSETNYGGTVAVTTPQPLEGRPIHQRISSSILTNSSNNLNLELQLLPLSSNQNPNQENQQQKVKEPSHHHNHNHDTTNLNLSIAPSSSYQHYNNFDRIKEIMASEQIMKIAMKEKAYAEEAKREAKRQREIAENEFANAKKIRQKAQAELERAKFLKEQSMKKISSTIMQVTCQTCKGQFQAVAVPAATADETSLVVSYMSSANTDGELENGF
